According to patent US20100285005A1 (Eli Lilly, published 2010):
These are yes or no findings as the source states them, for the method shown. Some binding calls cover weakened binding; strength is not graded here.

Chains of the proteins cited; added tags and fusions are not shown.
UniProt P61073: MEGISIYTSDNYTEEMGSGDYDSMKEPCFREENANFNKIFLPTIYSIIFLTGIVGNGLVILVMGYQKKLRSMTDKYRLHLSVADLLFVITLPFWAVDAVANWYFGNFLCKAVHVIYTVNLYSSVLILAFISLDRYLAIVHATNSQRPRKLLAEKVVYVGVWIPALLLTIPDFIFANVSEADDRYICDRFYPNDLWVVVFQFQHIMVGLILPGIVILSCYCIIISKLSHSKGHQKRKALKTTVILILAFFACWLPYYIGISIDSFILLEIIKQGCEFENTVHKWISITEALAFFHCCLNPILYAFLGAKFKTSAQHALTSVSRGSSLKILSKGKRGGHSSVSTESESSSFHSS

Tests used:
[1] = target: human CXCR4, endogenous on human cells (CCRF-CEM leukemia cells; U937 histiocytic lymphoma cells) (human) (UniProt P61073); experiment: inhibition of 125I-SDF-1α binding to CCRF-CEM cells (SPA)
[2] = target: human CXCR4, endogenous on human cells (CCRF-CEM leukemia cells; U937 histiocytic lymphoma cells) (human) (UniProt P61073); experiment: chemotaxis assay with U937 cells expressing endogenous CXCR4

Binder	binding [1]	binding [2]
Antibody I (antibody, human IgG4 S228P, kappa, F234A L235A, V domains shown) VH: EVQLVESGGGLVQPGGSLRLSCAASGFTSTDYYFSWVRQAPGKGLEWVGFIRTKSKGYTTEYSGSVKGRFTISRDDSKNSLYLQMNSLKTEDTAVYYCAREPITTDPRDYWGQGTLVTVSS VL: DIVMTQSPDSLAVSLGERATINCKSSQSLFNSRTRKKYLAWYQQKPGQPPKLLIYWASKRKSGVPDRFSGSGSGTDFTLTISSLQAEDVAVYYCKQSRFLRAFGQGTKLEIKR	binds	binds
Antibody IV (antibody, human IgG4 S228P, kappa, F234A L235A, V domains shown) VH: EVQLVESGGGLVQPGGSLRLSCAASGFTSTDYYFSWVRQAPGKGLEWVGFIRNKRKGYTTEYSGSVKGRFTISRDDSKNSLYLQMNSLKTEDTAVYYCAREPITTDPRDYWGQGTLVTVSS VL: DIVMTQSPDSLAVSLGERATINCKSSQSLFNSRTRKKYLAWYQQKPGQPPKLLIYWASKRKSGVPDRFSGSGSGTDFTLTISSLQAEDVAVYYCKQSRFLRAFGQGTKLEIKR	binds	binds
Antibody II (antibody, human IgG4 S228P, kappa, F234A L235A, V domains shown) VH: EVQLVESGGGLVQPGGSLRLSCAASGFTSTDYYFSWVRQAPGKGLEWVGFIRSKSKGYTTEYSGSVKGRFTISRDDSKNSLYLQMNSLKTEDTAVYYCAREPITTDPRDYWGQGTLVTVSS VL: DIVMTQSPDSLAVSLGERATINCKSSQSLFNSRTRKKYLAWYQQKPGQPPKLLIYWASKRKSGVPDRFSGSGSGTDFTLTISSLQAEDVAVYYCKQSRFLRAFGQGTKLEIKR	binds	binds
Antibody V (antibody, human IgG4 S228P, kappa, F234A L235A, V domains shown) VH: EVQLVESGGGLVQPGGSLRLSCAASGFTSTDYYFSWVRQAPGKGLEWVGFIRHKSKGYTTEYSGSVKGRFTISRDDSKNSLYLQMNSLKTEDTAVYYCAREPITTDPRDYWGQGTLVTVSS VL: DIVMTQSPDSLAVSLGERATINCKSSQSLFNSRTRKKYLAWYQQKPGQPPKLLIYWASKRKSGVPDRFSGSGSGTDFTLTISSLQAEDVAVYYCKQSRFLRAFGQGTKLEIKR	binds	binds
